Common to all, as to format: functional
One test has as its system Escherichia coli. Nature of the test: Antibacterial activity against Escherichia coli ATCC 25922 at 10 ug/disk after overnight incubation by agar diffusion test. The method, boiled down: (§1)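 Disk diffusion on agar plates seeded with the named strain. Test samples were dissolved in EtOH, and a 10 µL aliquot was applied to a 6 mm paper disk to give 10, 250 or 500 µg per disk. Commercial antibiotic disks served as controls. Plates were incubated overnight at 37 °C, and the diameter of the inhibition zone around each disk was read in mm.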
(A growth-free zone around the sample is the usual read-out of agar diffusion tests.)

A further test concerns Pseudomonas aeruginosa. Put plainly: Antibacterial activity against Pseudomonas aeruginosa ATCC 27853 at 10 ug/disk after overnight incubation by agar diffusion test. An outline of the steps:
as §1

Another test relates to Staphylococcus aureus. Put plainly: Antibacterial activity against Staphylococcus […] at 10 ug/disk after overnight incubation by agar diffusion test. An outline of the steps: as §1

Take GENTAMICIN: the inhibition zone (IZ) in the test with Escherichia coli turned out to be 18 mm; in the test with Pseudomonas aeruginosa, 18 mm; in the test with Staphylococcus aureus it was 22 mm.
